The other results are listed elsewhere or left out. Repeats are few or missing, and single values can be far off.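 The apoptosis fraction was the count of cleaved-PARP antibody-stained nuclei relative to all DNA-stained nuclei, imaged in 1,536-well plates. Screening doses were set so most cells survived, and baseline and induced cleaved-PARP levels vary greatly across cell lines.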

The test system of the test is WM1745. In words: cleaved PARP positive nuclei fraction relative to DMSO control; melanoma cells; higher = more apoptosis. Particulars: library dose: low library concentration; 72 h.
For `NC1(c2ccc(-c3nc4ccn5c(=O)[nH]nc5c4cc3-c3ccccc3)cc2)CCC1` + Cn1cc(/C=C2\C(=O)Nc3cccnc32)c2ccccc21 [GW441756] (first compound 0.4 µM, partner dose 0.4 µM), the “cleaved PARP positive nuclei fraction” value was 97.1%.

Consider `CN(c1ncccc1CNc1nc(Nc2ccc3c(c2)CC(=O)N3)ncc1C(F)(F)F)S(C)(=O)=O` + CCN(CC)CCCCNc1ncc2cc(-c3cc(OC)cc(OC)c3)c(NC(=O)NC(C)(C)C)nc2n1 [PD173074] (first compound 0.08 µM, partner dose 0.1 µM), for which the “cleaved PARP positive nuclei fraction” value worked out at 123%.

On to `CC1(C)CCC(c2ccc(Cl)cc2)=C(CN2CCN(c3ccc(C(=O)NS(=O)(=O)c4ccc(N[C@H](CCN5CCOCC5)CSc5ccccc5)c(S(=O)(=O)C(F)(F)F)c4)cc3)CC2)C1` + O=C(O)[C@@H]1[O][Sb](=[O])([O][Sb]2(=[O])[O][C@H]([C@H](O)CO)[C@H](O)[C@H](C(=O)O)[O]2)[O][C@H]([C@H](O)CO)[C@@H]1O [stibogluconate] (first compound 0.4 µM, partner dose 2 µM), for which the “cleaved PARP positive nuclei fraction” value came out at 926%.

On to `CS(=O)(=O)c1ccc(C(=O)Nc2ccc(Cl)c(-c3ccccn3)c2)c(Cl)c1` [vismodegib] + C#Cc1cccc(Nc2ncnc3cc(OCCOC)c(OCCOC)cc23)c1 [erlotinib] (first compound 1 µM, partner dose 0.8 µM), for which the “cleaved PARP positive nuclei fraction” value was 109%.

Regarding `CN(c1ncccc1CNc1nc(Nc2ccc3c(c2)CC(=O)N3)ncc1C(F)(F)F)S(C)(=O)=O` + C#Cc1cccc(Nc2ncnc3cc(OCCOC)c(OCCOC)cc23)c1 [erlotinib] (first compound 0.08 µM, partner dose 0.8 µM), the “cleaved PARP positive nuclei fraction” value was determined as 117%.

`CC1(C)CCC(c2ccc(Cl)cc2)=C(CN2CCN(c3ccc(C(=O)NS(=O)(=O)c4ccc(N[C@H](CCN5CCOCC5)CSc5ccccc5)c(S(=O)(=O)C(F)(F)F)c4)cc3)CC2)C1` + O=C(O)c1ccc2c(c1)nc(Nc1cccc(Cl)c1)c1ccncc12 [CX4945] (first compound 0.4 µM, partner dose 0.4 µM): the “cleaved PARP positive nuclei fraction” value was 1130%.

Take `COc1ccc(C2=N[C@@H](c3ccc(Cl)cc3)[C@@H](c3ccc(Cl)cc3)N2C(=O)N2CCNC(=O)C2)c(OC(C)C)c1` [Nutlin-3] + COc1cc2c(Oc3ccc4[nH]c(C)cc4c3F)ncnc2cc1OCCCN1CCCC1 [cediranib] (first compound 0.1 µM, partner dose 0.4 µM): the “cleaved PARP positive nuclei fraction” value amounted to 99.5%.

For `CC(=O)O[C@@]12CO[C@@H]1C[C@H](O)[C@@]1(C)C(=O)[C@H](O)C3=C(C)[C@@H](OC(=O)[C@H](O)[C@@H](NC(=O)OC(C)(C)C)c4ccccc4)C[C@@](O)([C@@H](OC(=O)c4ccccc4)[C@H]21)C3(C)C` [Docetaxel] + Cn1c(Nc2ccc(C(F)(F)F)cc2)nc2cc(Oc3ccnc(-c4ncc(C(F)(F)F)[nH]4)c3)ccc21 [CHIR265] (first compound 0.0001 µM, partner dose 0.08 µM), the “cleaved PARP positive nuclei fraction” value is 236%.

As to `CS(=O)(=O)c1ccc(C(=O)Nc2ccc(Cl)c(-c3ccccn3)c2)c(Cl)c1` [vismodegib] + Nc1ccn([C@@H]2O[C@H](CO)[C@@H](O)C2(F)F)c(=O)n1 [gemcitabine] (first compound 1 µM, partner dose 0.0004 µM), the “cleaved PARP positive nuclei fraction” value is 98.5%.

For the compound `CCCCCCCCc1ccc(CCC(N)(CO)CO)cc1` [fingolimod] + CCN(CC)CCCCNc1ncc2cc(-c3cc(OC)cc(OC)c3)c(NC(=O)NC(C)(C)C)nc2n1 [PD173074] (first compound 2 µM, partner dose 0.1 µM), the “cleaved PARP positive nuclei fraction” value came to 96.3%.

Regarding `COc1ccc(C2=N[C@@H](c3ccc(Cl)cc3)[C@@H](c3ccc(Cl)cc3)N2C(=O)N2CCNC(=O)C2)c(OC(C)C)c1` [Nutlin-3] + Nc1nc(F)nc2c1ncn2[C@@H]1O[C@H](CO)[C@@H](O)[C@@H]1O [fludarabine] (first compound 0.1 µM, partner dose 0.2 µM), the “cleaved PARP positive nuclei fraction” value turned out to be 95.3%.

`NC(=O)c1ccc(N(C(N)=O)c2c(F)cccc2F)nc1-c1ccc(F)cc1F` + CS(=O)(=O)CCNCc1ccc(-c2ccc3ncnc(Nc4ccc(OCc5cccc(F)c5)c(Cl)c4)c3c2)o1 [lapatinib] (first compound 0.4 µM, partner dose 0.8 µM): the “cleaved PARP positive nuclei fraction” value worked out at 99.7%.

Take `NC1(c2ccc(-c3nc4ccn5c(=O)[nH]nc5c4cc3-c3ccccc3)cc2)CCC1` + C=C(c1ccc(C(=O)O)cc1)c1cc2c(cc1C)C(C)(C)CCC2(C)C [Bexarotene] (first compound 0.4 µM, partner dose 2 µM): the “cleaved PARP positive nuclei fraction” value was 102%.

In the case of `Cn1cnc2c(F)c(Nc3ccc(Br)cc3Cl)c(C(=O)NOCCO)cc21` [selumetinib] + O=C(Nc1cccc(Cl)c1)Nc1ncc(CCNc2ncnc3ccsc23)s1 [SNS314] (first compound 0.015 µM, partner dose 0.0008 µM), the “cleaved PARP positive nuclei fraction” value turned out to be 219%.

With `Cn1sc(=O)n(Cc2ccccc2)c1=O` + CNC(=O)c1cc(Oc2ccc(NC(=O)Nc3ccc(Cl)c(C(F)(F)F)c3)cc2)ccn1 [sorafenib] (first compound 0.4 µM, partner dose 0.4 µM), the “cleaved PARP positive nuclei fraction” value was determined as 80.7%.

In the case of `NC(=O)c1ccc(N(C(N)=O)c2c(F)cccc2F)nc1-c1ccc(F)cc1F` + CC(C)C[C@H](NC(=O)[C@H](Cc1ccccc1)NC(=O)c1cnccn1)B(O)O [Bortezomib] (first compound 0.4 µM, partner dose 0.001 µM), the “cleaved PARP positive nuclei fraction” value amounted to 96.9%.

As for `NC(=O)c1ccc(N(C(N)=O)c2c(F)cccc2F)nc1-c1ccc(F)cc1F` + C[C@]1(O)C[C@@H](c2nc(-c3ccc4ccc(-c5ccccc5)nc4c3)c3c(N)nccn32)C1 [OSI906] (first compound 0.4 µM, partner dose 0.4 µM), the “cleaved PARP positive nuclei fraction” value came out at 145%.

For the compound `CS(=O)(=O)c1ccc(C(=O)Nc2ccc(Cl)c(-c3ccccn3)c2)c(Cl)c1` [vismodegib] + COCC[n+]1c2c(n(Cc3cnccn3)c1C)C(=O)c1ccccc1C2=O [YM155] (first compound 1 µM, partner dose 0.0004 µM), the “cleaved PARP positive nuclei fraction” value amounted to 95.9%.

Take `Cn1sc(=O)n(Cc2ccccc2)c1=O` + Cn1cncc1[C@@](N)(c1ccc(Cl)cc1)c1ccc2c(c1)c(-c1cccc(Cl)c1)cc(=O)n2C [tipifarnib] (first compound 0.4 µM, partner dose 0.01 µM): the “cleaved PARP positive nuclei fraction” value was 102%.

`CCN(CC)CCNC(=O)c1c(C)[nH]c(/C=C2\C(=O)Nc3ccc(F)cc32)c1C` [sunitinib] + CC(C)(C)c1cnc(CSc2cnc(NC(=O)C3CCNCC3)s2)o1 [SNS-032] (first compound 0.4 µM, partner dose 0.01 µM): the “cleaved PARP positive nuclei fraction” value came out at 129%.

`CC1(C)CCC(c2ccc(Cl)cc2)=C(CN2CCN(c3ccc(C(=O)NS(=O)(=O)c4ccc(N[C@H](CCN5CCOCC5)CSc5ccccc5)c(S(=O)(=O)C(F)(F)F)c4)cc3)CC2)C1` + C=C(c1ccc(C(=O)O)cc1)c1cc2c(cc1C)C(C)(C)CCC2(C)C [Bexarotene] (first compound 0.4 µM, partner dose 2 µM): the “cleaved PARP positive nuclei fraction” value is 459%.

`Cn1sc(=O)n(Cc2ccccc2)c1=O` + CCN(CC)CCCCNc1ncc2cc(-c3cc(OC)cc(OC)c3)c(NC(=O)NC(C)(C)C)nc2n1 [PD173074] (first compound 0.4 µM, partner dose 0.1 µM): the “cleaved PARP positive nuclei fraction” value is 84%.

`CC1(C)CCC(c2ccc(Cl)cc2)=C(CN2CCN(c3ccc(C(=O)NS(=O)(=O)c4ccc(N[C@H](CCN5CCOCC5)CSc5ccccc5)c(S(=O)(=O)C(F)(F)F)c4)cc3)CC2)C1` + Cn1sc(=O)n(Cc2ccccc2)c1=O [TDZD-8] (first compound 0.4 µM, partner dose 0.4 µM): the “cleaved PARP positive nuclei fraction” value is 692%.

As for `C[C@]1(O)C[C@@H](c2nc(-c3ccc4ccc(-c5ccccc5)nc4c3)c3c(N)nccn32)C1` + Cc1cc(Nc2cc(N3CCN(C)CC3)nc(/C=C/c3ccccc3)n2)n[nH]1 [ENMD2076] (first compound 0.4 µM, partner dose 0.04 µM), the “cleaved PARP positive nuclei fraction” value is 118%.

`C[C@@H](N)c1ccc(C(=O)Nc2ccnc3[nH]ccc23)cc1` + CN(C)S(=O)(=O)c1ccc2c(c1)/C(=C/c1cc3c([nH]1)CCCC3)C(=O)N2 [SU6656] (first compound 0.4 µM, partner dose 0.4 µM): the “cleaved PARP positive nuclei fraction” value was found to be 146%.

In the case of `NC1(c2ccc(-c3nc4ccn5c(=O)[nH]nc5c4cc3-c3ccccc3)cc2)CCC1` + CN(NC(=O)CC(=O)NN(C)C(=S)c1ccccc1)C(=S)c1ccccc1 [STA4783] (first compound 0.4 µM, partner dose 0.006 µM), the “cleaved PARP positive nuclei fraction” value amounted to 505%.

For `Cn1sc(=O)n(Cc2ccccc2)c1=O` + CC(C)(C)c1cnc(CSc2cnc(NC(=O)C3CCNCC3)s2)o1 [SNS-032] (first compound 0.4 µM, partner dose 0.01 µM), the “cleaved PARP positive nuclei fraction” value is 88.2%.

On to `Cn1cnc2c(F)c(Nc3ccc(Br)cc3Cl)c(C(=O)NOCCO)cc21` [selumetinib] + COc1cc(N2CCC(N3CCN(C)CC3)CC2)ccc1Nc1ncc(Cl)c(Nc2ccccc2S(=O)(=O)C(C)C)n1 [NVP-TAE684] (first compound 0.015 µM, partner dose 0.08 µM), for which the “cleaved PARP positive nuclei fraction” value stood at 76.6%.

For `Cn1cnc2c(F)c(Nc3ccc(Br)cc3Cl)c(C(=O)NOCCO)cc21` [selumetinib] + O=S(=O)(c1ccccc1)N(CC(F)(F)F)c1ccc(C(O)(C(F)(F)F)C(F)(F)F)cc1 [T0901317] (first compound 0.015 µM, partner dose 1.4 µM), the “cleaved PARP positive nuclei fraction” value was 116%.
